Data as given in PubChem BioAssay AID1347423 (Functional Genomics Laboratory (NCATS/FGL), 2020).
Among all 52,000 sequences or so, about 210 (0.4%) were called active.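 Rule for the calls: active = gene whose silencing raises cell survival under the drug, median off-target-corrected z-score across its silencing RNAs 2 or more; inactive = the rest.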 The list shows a part of the results.

Assay: Resistance to Poly (ADP-Ribose) Polymerase inhibitor: Gene Identification via Genome-wide siRNA Screen
Conditions: mouse BRCA2 R2336H ES cells, olaparib, CellTiter-Glo viability; stronger effect = higher value
Summary of the method: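 Mouse BRCA2 R2336H ES cells were reverse-transfected with siRNA (20 nM final), treated at 48 h with 500 nM olaparib, and read by CellTiter-Glo after 72 h. Scores: MAD-based z per siRNA, median per gene, seed off-target correction.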

Sequence | z-score
GGACACAGUAGAGCGGAUUTT against 4631403P03Rik | inactive: 3.03
GGGUGGAAGAGUUCAGUUUTT against Zadh1 | inactive: 0.507
GCUGAAUACAACGUGAGAUTT against Tdh | inactive: -0.744
GGGUUGUUGAGACUUCCACTT against Hmbs | inactive: 0.438
GCCCAUAGGUGCAGAUUCCTT against Fhl4 | inactive: 1.03
GGACAAGAACUACAUUGAGTT against Eefsec | inactive: 2.12
GGUAUCAUUUACUUUGAACTT against Gtf2f2 | inactive: 0.527
GGAGUUCUUUUUUUCUGUGTT against Pkd1 | inactive: -0.637
GGACCAGAAGGAGAAGAGUTT against Prg2 | inactive: -2.64
GAAUGGAAGACGAAAUUUGTT against Ctla2a | inactive: 0.826
GGCCUUACCAAAUGGAAGUTT against Ifih1 | inactive: 0.142
CCUACCUUCAUUCGCUUCGTT against Cpz | inactive: 1.77
CGAUGAAGCCAAUCACUUATT against Cct5 | inactive: -2.57
GGGAACCCAUUUUAGAAUUTT against Repin1 | inactive: 0.468
GGUCAACCCAGCCUAUUCATT against 0610039G24Rik | inactive: -1.21
GGAACUUUAUGUGGAAAGATT against V1rf2 | inactive: -0.552
GGGAACCAGUACAAUUACATT against 2410004H05Rik | inactive: -2.36
GGCUGAUGGAAAUCCUUAATT against Gm672 | inactive: 0.184
GGCUUUGAUGUCAGCACUGTT against AW552001 | inactive: 0.904
GGAGCUAGCUAGAACAAGUTT against Slmap | inactive: -0.506
GGGCUUUCUGCUGAAGAGATT against Leng9 | inactive: 1.11
GGGUCUCGAAGAGAUCAAUTT against B130016O10Rik | inactive: 0.378
CCGAGUGGUUAGCUACCAGTT against Ccl24 | inactive: 0.385
GAAAAGAGGACAGCUUGACTT against Serf1 | inactive: -0.267
GCCAAUGGUGUUAACAGCATT against Slc24a4 | inactive: 0.272
CGUUGUGUUCUGAACAACCTT against A930025D01Rik | inactive: 0.308

Fetched one by one from the list above (3):
Sequence | z-score
GGUAUCAUUUACUUUGAACTT against Gtf2f2 | inactive: 0.527
GGGUCUCGAAGAGAUCAAUTT against B130016O10Rik | inactive: 0.378
CGAUGAAGCCAAUCACUUATT against Cct5 | inactive: -2.57

The list goes on:

Sequence | z-score
GCACAGCUAACCCUGUUAGTT against Hbld2 | inactive: -1.44
GGGUAGGGCAGUCUACUUATT against F2r | inactive: -0.23
CCUAUCCUAGCACACCAGATT against Fosl1 | inactive: -0.224
GGUUGUGUGCAGGAAUGGGTT against Nxn | inactive: -1.14
GGAAGAAGCUCUAUGCUGATT against Fbxo9 | inactive: 0.0269
GGUGGUUUCACUCCAGAUGTT against Nnp1 | inactive: -2.9
UUUAGCCUUGCAUACGGACTT against Sfrs8 | inactive: -2.15
GGGAAGUUUCAGGAAGAAGTT against Pbx4 | inactive: 0.67
GCAGGUACUGCGCUAUUAUTT against 1110012E06Rik | inactive: -1.93
GGUAAUGUCUUUGUACUAATT against Tnfaip9 | inactive: -1.04
GCCCAGUCAAGACUAUUCGTT against Csnk2b | inactive: 0.844
CCGAUUUGGGUCAAUUUUATT against Gm608 | inactive: 2.03
GGGAGAAAUGCCUUUAGUCTT against 4832406C22 | inactive: 1.62
GGCCUGGAUGAAUGAAAAGTT against 2810037C03Rik | inactive: -1.88
GCAAAUACGAAAAUGAGUGTT against Bfsp1 | inactive: 0.134
GGACCGAAAGCAUUCGAUUTT against 1110049B09Rik | inactive: 2.48
GGAACAUUGAAAGGAUUAATT against Cspg6 | inactive: -2.83
CCCUCUUUAAACAGAUUGGTT against Fmo4 | inactive: -0.956
UAGCAGUCUACAGGAAUGGTT against Olfr1411 | inactive: -1.16
UUGUGAGUGCAUGUGAAAUTT against Epn1 | inactive: -1.64
GGCAAUUUAUAAUGUCUCUTT against Heph | inactive: 0.426
GGAGGCUGAGUAGGUAUGATT against Olfr137 | inactive: -1.25
GCCCACUAGUCAAAAGCUUTT against Kera | inactive: 0.836
GGAUAACUCACAAGAGUCUTT against Zdhhc16 | inactive: 0.446
CCGCAUCCUAAGUUUUAAATT against B130050K08 | inactive: -0.305
GGAUUGCCUGCUCACUAACTT against MGC47262 | inactive: -0.74

At a glance, some entries already given.
Sequence | z-score
GGACCAGAAGGAGAAGAGUTT against Prg2 | inactive: -2.64
GAAUGGAAGACGAAAUUUGTT against Ctla2a | inactive: 0.826

Shown as tab-separated lines: entries from further up.
Sequence	z-score
CCGCAUCCUAAGUUUUAAATT against B130050K08	inactive: -0.305
GGAUUGCCUGCUCACUAACTT against MGC47262	inactive: -0.74

(cont.)

Sequence | z-score
GGUCCUGAACCAGUUAGAGTT against Myohd1 | inactive: -0.159
GGGUUCGUUUCACAGAUCCTT against Chrd | inactive: -2.06
GGACAUCGGAUUCUACACCTT against Psg19 | inactive: 1.31
GGCUUCUUUCUCGGCAAGATT against 1810015A11Rik | inactive: -2.75
GGACAGCUCUCAUCUGAUGTT against D13Wsu64e | inactive: -0.724
GGUGUAGACUAAGACAAUATT against D8Ertd812e | inactive: -0.151
GGUUGUAGGUUAUAGCUGUTT against 2310043K02Rik | inactive: 1.47
CCCACUUUAUAGGACAUAUTT against Zhx3 | inactive: -0.828
GGAGUGUAUGAUGCUGAUGTT against S100a9 | inactive: 0.545
GGAGACAGAUUGCUACAGATT against Itga7 | inactive: 0.752
GGCAACUGGAGAUGUGUGUTT against BC013667 | inactive: -0.951
GGAGAAAAAUGUUGAUGAUTT against 4921510H08Rik | inactive: -0.337
GCUGAGACCCAGAUGCAAUTT against Mal | inactive: 0.582
GCACCUCGUUCACCAAUAUTT against Hs2st1 | inactive: 0.0524
GGUGUUUUGCUGUUAAUAATT against Foxd4 | inactive: 0.325
GGAAGAUAAAUCACAAUCATT against Cdc37l1 | inactive: -0.385
CGAGGAUUUCUAUCCUGACTT against Ascc1 | inactive: -0.358
GGACCAGUAUCAGAACAUCTT against Xrcc5 | inactive: 1.39
GGAAACAGUGAAAUGAGUATT against 2310003P10Rik | inactive: -0.0342
GGCUAUGCCAUGAACUUCUTT against Inhbc | inactive: 0.816
GGGUACAGACGAUGUUUGATT against Cmya4 | inactive: 0.737
GGUCAACCAUUCCUCUUGATT against A430105I19Rik | inactive: -2.08
CCUAUAAAGCAGCAACUGCTT against 9130213B05Rik | inactive: -0.9
UCUUUGUGAUUUCGAAGCCTT against BC019537 | inactive: -0.616
GGUUCUAGGACCUAUUUUGTT against 3110002L15Rik | inactive: -0.914
GGGAACUCGAACAAGAAUUTT against Six1 | inactive: 0.492

Sequence | z-score
CGCAGGUAUACCUUAAAGCTT against 1810007M14Rik | inactive: -1.25
GCUUAAAGUACGAUCAGCUTT against Wdr3 | inactive: -1.69
CGAGUGACAAAUGAAAUCGTT against Ercc4 | inactive: 1.42
GGAAGCUAUAUAUCAAGAATT against Tcea1 | inactive: -0.23
GGAAUUGAUUACUAUUACCTT against AI314180 | inactive: -0.952
GCGCGAUUCAGAGGUUUCATT against A430091O22Rik | inactive: -0.568
CCUGGGACCAACACAAAAUTT against 1700025E21Rik | inactive: 1.94
GGACGUAGUACCCAUGAAUTT against Adora2a | inactive: 1.58
GGAAGUGCUUUGAAGAAGATT against D330017J20Rik | inactive: -0.955
GCAAUGAACAAAUUUGGUGTT against Narg1 | inactive: -0.186
CCUACAACGAACGGGAGAATT against Dpm1 | inactive: -1.42
CGGUCCCAAACGGUCAAGUTT against AI851790 | inactive: -0.429
CUCCAUAAAAGGAAGUCUATT against Olfr1202 | inactive: -1.2
GGAUAUGUUUCUAGUAUCATT against Cd226 | inactive: -1.79
GGAUCUGAGAAAUGAAAUCTT against Slc3a1 | inactive: 0.0826
GGGCAAAAGCUAAUGACUCTT against 4933409K07Rik | inactive: -0.856
GGCGUGGAUGACCUAGACUTT against Actr3 | inactive: -1.2
GGAUCUCAUUCACAGAUUATT against Rasgrp3 | inactive: -0.961
GGAGAAACUGGCUUUCUCUTT against Zp3 | inactive: 0.196
GGCAGAUGCAAUCCAUUGGTT against Tas2r104 | inactive: -1.67
GGCAUCUUUCACAGUUUUGTT against Hspa12b | inactive: 0.94
GGAGAAAGAGAAAAUCGCUTT against Csnk1g2 | inactive: 0.0148
GGUAUUAAGUUCCUGUAAUTT against 4631427C17Rik | inactive: 0.102
CGAUACAGGACCGAAGGAGTT against 2900090M10Rik | inactive: 0.326
GGCCAGGAAAGCAUUAAGATT against Trim2 | inactive: 0.408
GGAACAUCCUUUGAAAACATT against Ptprk | inactive: -0.599
